Two molecules from publication doi:10.1101/2023.04.25.538284 (bioRxiv, 2023) can be followed below.

Results are given in words; binding and its absence hold for the method and conditions named. For some of these results: In cells and extracts the contact can be indirect. Some results given as binding are weak or reduced against the parent protein; the word gives no strength.

Test [1] deals with T1, pGBKT7-SnRK2.6 (Arabidopsis thaliana) (UniProt Q940H6).
T1 sequence: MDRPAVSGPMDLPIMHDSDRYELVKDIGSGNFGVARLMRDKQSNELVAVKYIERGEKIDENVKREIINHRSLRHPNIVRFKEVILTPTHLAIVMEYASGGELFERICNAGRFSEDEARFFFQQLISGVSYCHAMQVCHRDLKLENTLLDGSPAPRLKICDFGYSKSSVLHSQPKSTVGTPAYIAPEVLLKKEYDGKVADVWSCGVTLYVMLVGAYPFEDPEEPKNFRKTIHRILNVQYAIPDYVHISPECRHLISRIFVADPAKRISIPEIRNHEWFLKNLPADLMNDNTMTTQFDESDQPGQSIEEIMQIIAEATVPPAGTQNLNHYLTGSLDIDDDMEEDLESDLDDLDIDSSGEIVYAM
As to the kind of experiment: two-hybrid.

Test [2] concerns the target T2, pGBKT7-SnRK2.4 (Arabidopsis thaliana) (UniProt P43291).
T2 sequence: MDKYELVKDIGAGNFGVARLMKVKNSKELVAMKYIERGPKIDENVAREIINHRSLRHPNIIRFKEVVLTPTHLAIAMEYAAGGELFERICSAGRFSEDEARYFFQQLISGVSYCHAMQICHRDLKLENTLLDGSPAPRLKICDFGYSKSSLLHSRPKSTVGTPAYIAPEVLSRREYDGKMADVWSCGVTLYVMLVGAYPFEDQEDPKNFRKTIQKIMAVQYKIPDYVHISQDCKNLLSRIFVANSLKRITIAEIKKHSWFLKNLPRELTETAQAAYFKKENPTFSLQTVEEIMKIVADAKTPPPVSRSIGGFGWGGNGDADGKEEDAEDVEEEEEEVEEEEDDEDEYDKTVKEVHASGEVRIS
The test can be described thus: two-hybrid.

Test [3] has as its target T3, SnRK2.4-YNE (Arabidopsis thaliana) (UniProt P43291).
T3 sequence: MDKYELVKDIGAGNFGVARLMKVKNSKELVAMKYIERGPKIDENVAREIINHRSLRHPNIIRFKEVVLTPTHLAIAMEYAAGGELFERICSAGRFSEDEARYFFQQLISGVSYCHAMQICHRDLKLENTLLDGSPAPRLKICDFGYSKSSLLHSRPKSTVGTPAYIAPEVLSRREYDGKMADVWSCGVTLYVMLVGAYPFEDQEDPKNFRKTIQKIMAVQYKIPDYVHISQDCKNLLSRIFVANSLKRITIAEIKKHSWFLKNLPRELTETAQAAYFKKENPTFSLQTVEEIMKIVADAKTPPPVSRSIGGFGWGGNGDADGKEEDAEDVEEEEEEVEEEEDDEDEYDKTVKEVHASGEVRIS
As to the kind of experiment: split reporter.

Test [4] deals with T4, SnRK2.6-YNE (Arabidopsis thaliana) (UniProt Q940H6).
T4 sequence: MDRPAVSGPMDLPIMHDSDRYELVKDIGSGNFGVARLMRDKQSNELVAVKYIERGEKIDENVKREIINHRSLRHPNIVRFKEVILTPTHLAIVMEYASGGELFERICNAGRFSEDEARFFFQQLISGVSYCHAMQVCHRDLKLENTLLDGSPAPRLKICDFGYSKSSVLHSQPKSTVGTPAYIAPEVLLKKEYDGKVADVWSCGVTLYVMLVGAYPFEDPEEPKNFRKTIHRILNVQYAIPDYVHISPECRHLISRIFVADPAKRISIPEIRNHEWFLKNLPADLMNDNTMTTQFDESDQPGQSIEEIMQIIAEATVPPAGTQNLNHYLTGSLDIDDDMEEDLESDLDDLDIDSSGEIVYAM
As to the kind of experiment: split reporter.

B1: SIZ1 in pGADT7 (enzyme, UniProt Q680Q4-3 1-873)
chain: MDLEANCKEKLSYFRIKELKDVLTQLGLSKQGKKQELVDRILTLLSDEQAARLLSKKNTVAKEAVAKLVDDTYRKMQVSGASDLASKGQVSSDTSNLKVKGEPEDPFQPEIKVRCVCGNSLETDSMIQCEDPRCHVWQHVGCVILPDKPMDGNPPLPESFYCEICRLTRADPFWVTVAHPLSPVRLTATTIPNDGASTMQSVERTFQITRADKDLLAKPEYDVQAWCMLLNDKVLFRMQWPQYADLQVNGVPVRAINRPGGQLLGVNGRDDGPIITSCIRDGVNRISLSGGDVRIFCFGVRLVKRRTLQQVLNLIPEEGKGETFEDALARVRRCIGGGGGDDNADSDSDIEVVADFFGVNLRCPMSGSRIKVAGRFLPCVHMGCFDLDVFVELNQRSRKWQCPICLKNYSVEHVIVDPYFNRITSKMKHCDEEVTEIEVKPDGSWRVKFKRESERRELGELSQWHAPDGSLCPSAVDIKRKMEMLPVKQEGYSDGPAPLKLGIRKNRNGIWEVSKPNTNGLSSSNRQEKVGYQEKNIIPMSSSATGSGRDGDDASVNQDAIGTFDFVANGMELDSISMNVDSGYNFPDRNQSGEGGNNEVIVLSDSDDENDLVITPGPAYSGCQTDGGLTFPLNPPGIINSYNEDPHSIAGGSSGLGLFNDDDEFDTPLWSFPSETPEAPGFQLFRSDADVSGGLVGLHHHSPLNCSPEINGGYTMAPETSMASVPVVPGSTGRSEANDGLVDNPLAFGRDDPSLQIFLPTKPDASAQSGFKNQADMSNGLRSEDWISLRLGDSASGNHGDPATTNGINSSHQMSTREGSMDTTTETASLLLGMNDSRQDKAKKQRSDNPFSFPRQKRSVRPRMYLSIDSDSE
B1: the binding result in test [1] and in test [2] was “binds” each time.

B2: SIZ1-YCE (enzyme, UniProt Q680Q4-3 1-873)
chain: MDLEANCKEKLSYFRIKELKDVLTQLGLSKQGKKQELVDRILTLLSDEQAARLLSKKNTVAKEAVAKLVDDTYRKMQVSGASDLASKGQVSSDTSNLKVKGEPEDPFQPEIKVRCVCGNSLETDSMIQCEDPRCHVWQHVGCVILPDKPMDGNPPLPESFYCEICRLTRADPFWVTVAHPLSPVRLTATTIPNDGASTMQSVERTFQITRADKDLLAKPEYDVQAWCMLLNDKVLFRMQWPQYADLQVNGVPVRAINRPGGQLLGVNGRDDGPIITSCIRDGVNRISLSGGDVRIFCFGVRLVKRRTLQQVLNLIPEEGKGETFEDALARVRRCIGGGGGDDNADSDSDIEVVADFFGVNLRCPMSGSRIKVAGRFLPCVHMGCFDLDVFVELNQRSRKWQCPICLKNYSVEHVIVDPYFNRITSKMKHCDEEVTEIEVKPDGSWRVKFKRESERRELGELSQWHAPDGSLCPSAVDIKRKMEMLPVKQEGYSDGPAPLKLGIRKNRNGIWEVSKPNTNGLSSSNRQEKVGYQEKNIIPMSSSATGSGRDGDDASVNQDAIGTFDFVANGMELDSISMNVDSGYNFPDRNQSGEGGNNEVIVLSDSDDENDLVITPGPAYSGCQTDGGLTFPLNPPGIINSYNEDPHSIAGGSSGLGLFNDDDEFDTPLWSFPSETPEAPGFQLFRSDADVSGGLVGLHHHSPLNCSPEINGGYTMAPETSMASVPVVPGSTGRSEANDGLVDNPLAFGRDDPSLQIFLPTKPDASAQSGFKNQADMSNGLRSEDWISLRLGDSASGNHGDPATTNGINSSHQMSTREGSMDTTTETASLLLGMNDSRQDKAKKQRSDNPFSFPRQKRSVRPRMYLSIDSDSE
As for B2, the binding entry in test [3] and in test [4] was “binds” throughout.
